Values quoted from earlier work, collected in US20020019344A1, “Methods of preventing allograft rejection” (priority 2000, published 2002).
At least one structure is not confirmed: it was looked up by name or label, or the drawing left a doubt.

Test system: PPARgamma or PPARalpha
Settings: in words; cited from earlier work

Compound: CN(CCOc1ccc(CC2SC(=O)NC2=O)cc1)c1ccccn1 (stereo not shown) [rosiglitazone]
- affinity for PPARgamma or PPARalpha: high affinity
